Laboratory results: PubChem BioAssay AID1671195 (Yale University, 2021)
Shown is one part, drawn at random, of about 22,000 reagents tested. Of all reagents, about 1,510 (6.9%) got an active call. 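Active includes knockdowns raising or lowering LDL uptake; positive z-scores mean more uptake, negative mean less.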 Reagents against one gene are numbered here.

- Screen: 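Knockdowns that increase or decrease uptake of fluorescent LDL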 (primary screen)
- Cell system: human Huh7 hepatoma cells
- Reagent: siRNA pool against human genes, 18 nM
- Timing: about 2 to 2.5 days of knockdown, then 8 h LDL uptake
- Treatment: DiI-labelled LDL at 30 µg/ml for 8 h, in lipoprotein-deficient serum medium
- Measurement: 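Per-cell DiI-LDL intensity by automated imaging; well means scaled to the plate median and given as a robust z-score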
- Reading the numbers: robust z-score: higher = more LDL uptake after knockdown
- Active means: 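a gene counts as active if at least two replicate z-scores exceed ±2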

| target | pool no. | robust z-score, replicate 1 | robust z-score, replicate 2 | robust z-score, replicate 3 | Call |
| --- | --- | --- | --- | --- | --- |
| HOTAIR | 1 | 0.886 | 0.0114 | 0.146 | inactive |
| LAD1 | 1 | 0.174 | 0.458 | 0.631 | inactive |
| CDRT4 | 1 | -0.935 | -1.04 | -0.989 | inactive |
| C19orf44 | 1 | 0.887 | 0.425 | 0.53 | inactive |
| MTURN | 1 | -0.67 | -0.736 | -0.452 | inactive |
| PHTF1 | 1 | 0.532 | -0.408 | 1.12 | inactive |
| RAB5C | 1 | -2.79 | -1.52 | -2.65 | active |
| TSLIG3C | 1 | -1.2 | -0.318 | -1.02 | inactive |
| BIRC3 | 1 | 0.691 | -0.0187 | 0.128 | inactive |
| LOC441790 (retired record) | 1 | 2.15 | 2.27 | 3.01 | active |
| ACIN1 | 1 | 0.633 | 0.589 | -0.94 | inactive |
| ADPRM | 1 | 0.357 | 0.43 | -0.118 | inactive |
| WDR81 | 1 | -0.792 | -1.05 | -1.28 | inactive |
| JAZF1 | 1 | -0.826 | -0.943 | -0.696 | inactive |
| KRT36 | 1 | -0.261 | -0.871 | -1.02 | inactive |
| LOC441436 (retired record) | 1 | 2.22 | 2.85 | 2.47 | active |
| MAEA | 1 | 0.983 | 0.21 | 1.16 | inactive |
| HFM1 | 1 | 2.32 | 3.2 | 3.9 | active |
| HFM1 | 2 | 0.298 | 0.606 | 0.766 | inactive |
| NTF3 | 1 | 1.35 | 3.07 | 2.52 | active |
| CFAP184 | 1 | -0.182 | -0.0936 | -0.25 | inactive |
| MIOS | 1 | -0.837 | 0.031 | 0.615 | inactive |
| AFP | 1 | -0.0438 | -0.0583 | 0.154 | inactive |
| RECQL4 | 1 | 0.116 | 0.972 | -0.0137 | inactive |
| NBEA | 1 | 0.0768 | -2.34 | -0.343 | inactive |
| LOC391779 (retired record) | 1 | -0.124 | 0.162 | 0.167 | inactive |
| LOC389139 (retired record) | 1 | -1.09 | -0.61 | -0.811 | inactive |
| GUCY2D | 1 | -1.93 | -0.593 | -1.66 | inactive |
| MPV17L2 | 1 | -1.1 | -0.724 | -1.05 | inactive |
| ELP6 | 1 | 1.21 | 1.71 | -0.924 | inactive |
| SELENOH | 1 | 0.0284 | 0.339 | 0.483 | inactive |
| CELF5 | 1 | -0.959 | 0.249 | 0.0993 | inactive |
| FLJ44385 (retired record) | 1 | 1.33 | 1.23 | 0.998 | inactive |
| CFAP221 | 1 | -0.477 | -0.324 | -0.782 | inactive |
| ARL13B | 1 | -0.348 | 0.0553 | -0.515 | inactive |
| LOC401616 (retired record) | 1 | 0.803 | -1.88 | 0.157 | inactive |
| PRELP | 1 | -1.69 | 0.384 | -1.58 | inactive |
| LINC02783 | 1 | 1.28 | 1.31 | 1.56 | inactive |
| DEFB112 | 1 | 1.02 | 1.11 | 0.822 | inactive |
| IYD | 1 | -0.475 | -0.341 | -0.401 | inactive |
| HOATZ | 1 | -0.963 | -1.35 | -1.55 | inactive |
| PTPRVP | 1 | -0.00249 | 0.73 | 0.215 | inactive |
| PRORP | 1 | 0.206 | 2.5 | 0.118 | inactive |
| CFAP46 | 1 | 0.542 | 1.41 | 1.19 | inactive |
| CFAP46 | 2 | 0.212 | -0.0862 | 0.267 | inactive |
| CFAP46 | 3 | -0.649 | 0.33 | -0.24 | inactive |
| CFAP46 | 4 | -0.558 | 0.000201 | -0.595 | inactive |
| ISYNA1 | 1 | 0.202 | -0.325 | -0.197 | inactive |
| TAGLN2 | 1 | -0.618 | -0.657 | -1.71 | inactive |
| HOMER2 | 1 | -0.124 | 0.188 | -0.849 | inactive |
| MMAA | 1 | -0.00229 | 0.193 | 0.635 | inactive |
| PIGK | 1 | -0.926 | -0.458 | -0.597 | inactive |
| KCTD19 | 1 | 0.743 | 0.55 | 1.69 | inactive |
| SGF29 | 1 | -0.493 | 0.0343 | -0.428 | inactive |
| SNTB1 | 1 | 1.22 | 0.0949 | 0.942 | inactive |
| ISM1 | 1 | -0.441 | -0.422 | -1.87 | inactive |
| NUDT8 | 1 | 0.472 | 1.04 | 0.718 | inactive |
| ZFP36L1 | 1 | 2.45 | 2.07 | 2.47 | active |
| CD79B | 1 | -0.693 | -0.662 | 0.582 | inactive |
| TEKT2 | 1 | -1.2 | -0.996 | -0.0525 | inactive |
| ADH7 | 1 | 3.32 | 2.76 | 2.85 | active |
| TOLLIP | 1 | -1.4 | -0.872 | -1.08 | inactive |
| LOC388397 (retired record) | 1 | 0.448 | 1.27 | 0.548 | inactive |
| POU2F3 | 1 | -1.34 | -1.72 | -1.28 | inactive |
| TPM3 | 1 | 3.2 | 1.84 | 5.04 | active |
| H2AC14 | 1 | 2.28 | 5.33 | 3.33 | active |
| C5AR1 | 1 | -0.994 | -1.88 | -1.88 | inactive |
| OR2B6 | 1 | 2.46 | 0.649 | -0.152 | inactive |

No new results follow: entries from further up.
| target | pool no. | robust z-score, replicate 1 | robust z-score, replicate 2 | robust z-score, replicate 3 | Call |
| --- | --- | --- | --- | --- | --- |
| CDRT4 | 1 | -0.935 | -1.04 | -0.989 | inactive |
| C19orf44 | 1 | 0.887 | 0.425 | 0.53 | inactive |
| MTURN | 1 | -0.67 | -0.736 | -0.452 | inactive |
| PHTF1 | 1 | 0.532 | -0.408 | 1.12 | inactive |
| RAB5C | 1 | -2.79 | -1.52 | -2.65 | active |
| TSLIG3C | 1 | -1.2 | -0.318 | -1.02 | inactive |
| BIRC3 | 1 | 0.691 | -0.0187 | 0.128 | inactive |
| LOC441790 (retired record) | 1 | 2.15 | 2.27 | 3.01 | active |
| ACIN1 | 1 | 0.633 | 0.589 | -0.94 | inactive |
| ADPRM | 1 | 0.357 | 0.43 | -0.118 | inactive |
| WDR81 | 1 | -0.792 | -1.05 | -1.28 | inactive |
